In PubChem BioAssay AID493014 (National Center for Advancing Translational Sciences (NCATS), 2011):
Some of the results follow. Further columns of the screen follow, without active or inactive calls. The list favours compounds with an active or inconclusive main result. The note in brackets gives the kind of curve behind each potency; many fits are weak.

Experiment: qHTS Assay to Find Inhibitors of Chronic Active B-Cell Receptor Signaling
Conditions: ABC-DLBCL IkBa-CBG/CBR reporter, luminescence ratio (green luciferase fused to IkBa over red control in TMD8 lymphoma cells), 4 h
Outline: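 Compounds up to 46 uM were incubated four hours with TMD8 cells whose green CBG68 luciferase is fused to IkappaBalpha; red CBR luminescence normalised the signal, and concentration-effect curves were fitted to fusion, red and ratio data.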

[1] = measured here: CBR red luminescence, cell number
[2] = measured here: IkBa-CBG green luminescence

SMILES	AC50 [1]	AC50 [2]
CCOC(=O)C(C)c1ccc2cc(OC)ccc2c1 (centres undefined)	35.5 µM [rising, single point]	
C/C(=N\NC(=O)c1ccc2c(c1)OCO2)c1ccco1	4.47 µM [falling, partial curve]	
CCOc1ccc2nc(SCc3ccccc3C#N)sc2c1	22.4 µM [rising, partial curve, poor fit]	
c1ccc(-c2nc(NCC3CCCO3)c3oc4ccccc4c3n2)cc1 (centres undefined)	8.2 µM [falling, partial curve, poor fit]	
Fc1ccc(NC(=S)NNc2ncc(C(F)(F)F)cc2Cl)c(F)c1	35.5 µM [falling, single point]	
COc1ccc(CNC(=O)c2cc(C(C)=O)c[nH]2)cc1	20 µM [rising, partial curve, poor fit]	
COc1ccccc1NCC(O)COc1ccc(C(C)(C)C)cc1 (centres undefined)	22.4 µM [falling, single point]	
O=C(CCC(=O)Nc1ccccc1Cl)NN=C1CCCC1	0.631 µM [falling, partial curve, poor fit]	
COc1ccc(C)cc1NC(=O)c1cccc(C(=O)Nc2cc(C)ccc2OC)c1	11.2 µM [falling, partial curve, poor fit]	
COc1cc(/C=N/N(C)c2ccccc2)ccc1O	0.731 µM [rising, full curve]	18.4 µM [falling, partial curve]
N#CC(C#N)=C1C=CC=CN1/C(=C\c1ccccc1Cl)C(=O)c1ccccc1	29.1 µM [falling, single point]	
Cc1ccc(S(=O)(=O)c2nc(NN(C)C)sc2Cl)cc1	17.8 µM [falling, single point]	
O=C(CSc1nnc(Cc2ccccc2)o1)NCc1ccco1	4.47 µM [rising, single point]	
O=C(COC(=O)c1cccnc1Cl)NC(=O)NC1CCCCC1	18.4 µM [rising, single point]	
CC12CN3CC(C)(CN(C1)C3c1ccccc1F)C2 (centres undefined)	1.41 µM [rising, partial curve, poor fit]	
CCN(CC(=O)Nc1cccc(F)c1)Cc1nc2ccccc2c(=O)[nH]1	35.5 µM [falling, single point]	
C[C@]1(C(=O)NCc2cc(F)cc(C(F)(F)F)c2)C=C[C@@H](Cc2ccccc2)N1C(=O)c1ccccc1	20.6 µM [falling, single point]	25.9 µM [rising, partial curve, poor fit]
O=c1c2ccccc2oc2cc(-c3ccc4cc[nH]c4c3)ccc12	8.2 µM [rising, partial curve, poor fit]	
N#C/C(C(N)=O)=c1/ccc2c(c1)N1C3=C(CCCC3)CC3CCCCC31N=2 (centres undefined)	22.4 µM [falling, single point]	17.8 µM [rising, single point]
C=CCSc1nnc(-c2nnc(SCC=C)n2-c2ccccc2)n1-c1ccccc1	12.6 µM [falling, single point]	
Cc1ccc(CN2CCSc3ccc(C(=O)NCc4cccnc4)cc32)cc1	35.5 µM [falling, single point]	

SMILES	AC50 [1]	AC50 [2]
O=C(Nc1ccc(F)cc1F)N1CCCN(CCOc2ccccc2)CC1	35.5 µM [rising, single point]	
O=C(OCc1ccc(Br)cc1)c1cccnc1Cl	14.1 µM [rising, partial curve, poor fit]	
Cc1cc(C)c2nc(NNC(=O)c3cc(=O)c4ccccc4o3)sc2c1	3.98 µM [falling, full curve]	
COc1ccc(C(=O)NC2CCN(C(=S)Nc3ccc(C)cc3)CC2)cc1	3.16 µM [rising, full curve]	
O=C(NCCc1ccc(F)cc1)Nc1ccccc1Cl	12.6 µM [falling, partial curve]	
O=C(Cn1cc2c(n1)CCCC2)NCc1ccccn1	7.31 µM [rising, partial curve, poor fit]	
CCCn1nc(Oc2nc(NCC)nc(NC(C)C)n2)ccc1=O	20 µM [rising, single point]	
COc1ccc(Cc2nn3c(-c4ccccc4Br)nnc3s2)cc1	29.1 µM [falling, single point]	
O=C1NC(=S)N/C1=C/c1ccc(-c2c(Br)cc([N+](=O)[O-])cc2Br)o1	18.4 µM [rising, single point]	
CCOc1cccc(C(c2c(C)n(C)n(-c3ccccc3)c2=O)c2c(C)n(C)n(-c3ccccc3)c2=O)c1OC	20 µM [falling, single point]	
CCOC(=O)[C@H]1[C@H]2COc3ccc(Cl)cc3[C@@H]2N2C(=O)c3cc(F)c(F)cc3NC(=O)[C@@]12C	20.6 µM [falling, single point]	
CC(C)C(=O)Nc1ccccc1C(=O)OCC(=O)c1ccc2c(c1)OCCO2	29.1 µM [falling, single point]	
COc1cccc(C(=O)NC(=S)Nc2ccccc2N2CCOCC2)c1	0.447 µM [falling, full curve, poor fit]	
Cc1ccc(S(=O)(=O)N2CCN(C(=O)CSC(=S)N3CCCC3)CC2)c(C)c1	1.64 µM [rising, partial curve]	4.61 µM [falling, partial curve, poor fit]
COc1cc(-c2[nH]ncc2CN2CCCC2c2nonc2C)cc(OC)c1OC (centres undefined)	6.31 µM [rising, single point]	
COc1ccc(CCNC(=O)c2ccc(S(=O)(=O)N3CCCCC3)cc2)cc1	4.61 µM [rising, partial curve, poor fit]	
O=C(O)c1cnn2c(C(F)(F)F)cc(-c3ccccc3)nc12	6.51 µM [falling, single point]	
CCCCCC(=O)Nc1ccc(-c2csc(N)n2)cc1	20 µM [falling, single point]	
O=C(CC1c2ccccc2Oc2ccccc21)N1CCN(c2ccccn2)CC1	22.4 µM [falling, partial curve]	
O=Cc1c(N2CCCCCC2)nc2ccccn2c1=O	29.1 µM [rising, single point]	
O=C(Nc1ccc2c(c1)OCO2)c1ccccc1	7.08 µM [falling, full curve, poor fit]	

SMILES	AC50 [1]	AC50 [2]
CCCc1nc2ccccc2n1CCOc1ccccc1	5.8 µM [falling, partial curve]	
CC1=NN(C(N)=S)C(=O)C1N=Nc1cccc(C)c1 (centres undefined)	0.708 µM [rising, full curve, poor fit]	1.41 µM [falling, full curve]
CC(CC(=O)Nc1ccc(Cl)c([N+](=O)[O-])c1)c1ccccc1 (centres undefined)	10 µM [rising, partial curve, poor fit]	
O=c1[nH]c(=S)n(-c2cccc(Cl)c2)c(O)c1/C=N/N1CCOCC1	15.8 µM [rising, single point]	
O=C(Nc1cccc(Cl)c1)c1cccc(Oc2ccc([N+](=O)[O-])cc2Cl)c1	23.1 µM [falling, single point]	
COc1ccc(OC)c(C2C3=C(N=C4SCC(=O)N42)c2ccccc2CC3)c1 (centres undefined)	35.5 µM [falling, single point]	
COc1cc(C(=O)NS(=O)(=O)c2ccccc2C)ccc1Cc1cn(C)c2ccc(NC(=O)OC3CCCC3)cc12	35.5 µM [falling, single point]	
CCCNC(=O)Cn1cnc2sc(C(=O)NCCCN3CCOCC3)c(C)c2c1=O	35.5 µM [falling, single point]	
CCC/C(O)=C1\C(=O)CC(C)(C)CC1=Nc1ccccc1OC	14.1 µM [falling, single point]	
Oc1ccccc1CNc1ccc(OC(F)(F)F)cc1	2.51 µM [rising, partial curve, poor fit]	
COc1ccccc1NC(=O)CCCCCN1C(=O)c2cccc3cccc(c23)C1=O	1.26 µM [rising, full curve]	
Cc1ccc(S(=O)(=O)NCc2ccc(/C=C(/C#N)C(=O)NCc3ccccc3)o2)cc1	7.31 µM [rising, partial curve, poor fit]	
Cc1cccc2cc(CN(Cc3cccs3)C(c3nnnn3C3CCCC3)C(C)C)c(=O)[nH]c12 (centres undefined)	15.8 µM [falling, partial curve, poor fit]	
CC1CCN(C(=O)CSc2nnc(-c3cccs3)o2)CC1	3.55 µM [rising, single point]	
CCN=c1sc2ccccc2n1CC(O)COc1ccccc1 (centres undefined)	18.4 µM [falling, partial curve]	
CCC(=O)Nc1ccc(NC(=O)c2oc3ccccc3c2C)cc1	35.5 µM [rising, single point]	
O=C(COc1ccccc1[N+](=O)[O-])Nc1cccc(S(=O)(=O)NC2=NCCCCC2)c1	18.4 µM [falling, partial curve, poor fit]	
NC(N)=NNC(=O)c1ccccc1Cl	13 µM [falling, partial curve, poor fit]	
CC(=O)NCC(=O)N(c1ccccc1)C1(C(=O)NC2CCCCC2)CCCCC1	8.91 µM [rising, partial curve, poor fit]	
COc1ccc(C2=NOC(C(=O)NCc3ccc(F)cc3)C2)cc1 (centres undefined)	5.01 µM [rising, full curve]	3.16 µM [falling, full curve]
O=C1CCOc2cc(OCc3ccccc3)ccc21	29.1 µM [falling, single point]	

Looked up above:
AC50 [2] with COc1ccc(C2=NOC(C(=O)NCc3ccc(F)cc3)C2)cc1 (centres undefined) is entered as 3.16 µM [falling, full curve]
AC50 [1] with CCC(=O)Nc1ccc(NC(=O)c2oc3ccccc3c2C)cc1 is entered as 35.5 µM [rising, single point]
AC50 [1] with COc1cc(C(=O)NS(=O)(=O)c2ccccc2C)ccc1Cc1cn(C)c2ccc(NC(=O)OC3CCCC3)cc12 is entered as 35.5 µM [falling, single point]
AC50 [1] with CC(CC(=O)Nc1ccc(Cl)c([N+](=O)[O-])c1)c1ccccc1 (centres undefined) is entered as 10 µM [rising, partial curve, poor fit]
AC50 [2] with CC1=NN(C(N)=S)C(=O)C1N=Nc1cccc(C)c1 (centres undefined) is entered as 1.41 µM [falling, full curve]
AC50 [1] with O=C(Nc1cccc(Cl)c1)c1cccc(Oc2ccc([N+](=O)[O-])cc2Cl)c1 is entered as 23.1 µM [falling, single point]
